From publication PMC9263130
Results are given in words; binding and its absence hold for the method and conditions named. In cells and extracts the contact can be indirect. Some binding calls cover weakened binding; strength is not graded here. Tags and fused reporters may be left off the sequences shown.

By UniProt entry, the sequences of proteins in these tests, tags left out. Where a name states a change or a piece, a line headed by the entry shows the natural chain unless it says otherwise.
UniProt O60674: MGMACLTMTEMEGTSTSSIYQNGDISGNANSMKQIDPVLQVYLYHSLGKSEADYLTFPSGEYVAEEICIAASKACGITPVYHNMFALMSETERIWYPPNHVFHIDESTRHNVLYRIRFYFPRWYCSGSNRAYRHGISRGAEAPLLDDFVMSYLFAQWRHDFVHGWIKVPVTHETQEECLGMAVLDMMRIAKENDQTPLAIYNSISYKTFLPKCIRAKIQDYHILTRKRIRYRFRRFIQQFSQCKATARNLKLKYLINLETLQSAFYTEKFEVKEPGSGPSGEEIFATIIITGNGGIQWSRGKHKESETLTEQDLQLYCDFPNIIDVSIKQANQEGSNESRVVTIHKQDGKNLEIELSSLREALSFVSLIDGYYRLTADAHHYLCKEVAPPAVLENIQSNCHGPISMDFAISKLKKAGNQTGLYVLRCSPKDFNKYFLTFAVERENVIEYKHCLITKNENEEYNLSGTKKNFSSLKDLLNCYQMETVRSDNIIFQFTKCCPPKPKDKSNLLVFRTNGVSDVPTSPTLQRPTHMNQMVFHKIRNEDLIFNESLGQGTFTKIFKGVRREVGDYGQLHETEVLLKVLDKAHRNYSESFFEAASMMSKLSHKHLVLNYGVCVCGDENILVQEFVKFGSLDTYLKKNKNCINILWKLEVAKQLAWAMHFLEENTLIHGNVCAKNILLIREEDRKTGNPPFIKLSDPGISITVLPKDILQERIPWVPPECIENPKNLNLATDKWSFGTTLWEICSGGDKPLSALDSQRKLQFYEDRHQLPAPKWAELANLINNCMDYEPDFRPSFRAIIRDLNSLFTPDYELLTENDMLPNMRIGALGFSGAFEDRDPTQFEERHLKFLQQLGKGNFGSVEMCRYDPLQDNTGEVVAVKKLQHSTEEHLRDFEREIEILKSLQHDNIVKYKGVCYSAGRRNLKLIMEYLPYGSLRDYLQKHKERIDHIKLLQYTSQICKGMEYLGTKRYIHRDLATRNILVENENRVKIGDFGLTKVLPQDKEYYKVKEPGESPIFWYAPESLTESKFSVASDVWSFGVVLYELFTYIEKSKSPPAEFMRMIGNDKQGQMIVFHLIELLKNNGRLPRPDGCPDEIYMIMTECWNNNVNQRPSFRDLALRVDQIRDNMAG

Target: JAK2 (endogenous in HEL cells, which harbour the JAK2V617F mutation) (human (endogenous in HEL)) (UniProt O60674)
Test: co-IP; HEL cells with 3 × Flag-CHST15 wild type or mutant; RIPA lysate, precleared with Protein A/G PLUS-agarose and control IgG; anti-JAK2 or anti-Flag-CHST15 antibody overnight at 4 °C; immunoblot

- binding: binds
B1: 3 × Flag-tagged wild-type CHST15 (carbohydrate sulfotransferase 15) (protein, UniProt Q7LFX5-2 1-506)
chain: MRHCINCCIQLLPDGAHKQQVNCQGGPHHGHQACPTCKGENKILFRVDSKQMNLLAVLEVRTEGNENWGGFLRFKKGKRCSLVFGLIIMTLVMASYILSGAHQELLISSPFHYGGFPSNPSLMDSENPSDTKEHHHQSSVNNISYMKDYPSIKLIINSITTRIEFTTRQLPDLEDLKKQELHMFSVIPNKFLPNSKSPCWYEEFSGQNTTDPYLTNSYVLYSKRFRSTFDALRKAFWGHLAHAHGKHFRLRCLPHFYIIGQPKCGTTDLYDRLRLHPEVKFSAIKEPHWWTRKRFGIVRLRDGLRDRYPVEDYLDLFDLAAHQIHQGLQASSAKEQSKMNTIIIGEASASTMWDNNAWTFFYDNSTDGEPPFLTQDFIHAFQPNARLIVMLRDPVERLYSDYLYFASSNKSADDFHEKVTEALQLFENCMLDYSLRACVYNNTLNNAMPVCTPPPRTPRAGPWQKELVCCYYASGIVGLRFSIGTERSVLMCKCCSPLFMDVKAEN
